For the data set, the target named is T1, GST-ABF1 (Oryza sativa L. ssp. japonica cv Nipponbare) (UniProt Q0JHF1).
T1 sequence (looked up): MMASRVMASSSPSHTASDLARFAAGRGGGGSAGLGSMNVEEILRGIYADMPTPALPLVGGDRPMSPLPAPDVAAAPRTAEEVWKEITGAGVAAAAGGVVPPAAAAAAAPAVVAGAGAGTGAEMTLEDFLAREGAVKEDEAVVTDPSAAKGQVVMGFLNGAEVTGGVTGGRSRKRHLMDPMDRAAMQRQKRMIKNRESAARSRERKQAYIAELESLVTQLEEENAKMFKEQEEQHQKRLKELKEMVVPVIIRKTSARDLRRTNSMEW
Put plainly: EMSA. The note with it: EMSA/gel-shift binding buffer (composition, pH and temperature not stated); 20 fmol biotin-labeled probe; 6% acrylamide gel; recombinant protein; residues …; protein details: N-terminal GST (pGEX-4T-1); label: biotin.

Negatives hold for the conditions tested. At least one verdict rests on a figure or table, not on a statement of the authors. Tags and fusion partners may be left off the protein sequences shown.

With “CGATCGAGGTCGTCGCGGCGGTGTACTACGTGGTAATAAATCAGTGTCAAAGCATGGGG (double strand) [TPP5 promoter probe]”, the binding result is “no binding”.

Consider “CGTGGCTGTGCATGTCGCCTGTCATGTACCCACGTCGCCCCAGAGAAAAAGTTGGGCAA (double strand) [TPS9 promoter probe]”, for which the binding result was “no binding”.

On to “GAGGGTGTCTAACGTAACTTCCCACCTGACGTGGTTACTAACATGTGAGCCTGAGGGTG (double strand) [TPP6 promoter probe]”, for which the binding result is “no binding”.

As for “GCGGCAGACAGCTTGAGGACGGCCCACGTGGCCTCGATGAGTCAACCATGCAATTAATG (double strand) [TPS5 promoter probe]”, the binding result is on record as “no binding”.

For the origin of these results see paper PMC10342119, “ABF1 Positively Regulates Rice Chilling Tolerance via Inducing Trehalose Biosynthesis” (International Journal of Molecular Sciences, 2023).
